Reference: PubChem BioAssay AID588497 (NMMLSC, 2011)
Where “and” joins values, the source holds several entries; their conditions need not be identical. Identical values can stand only once. About 780 (0.22%) of roughly 360,000 compounds were called active. This list was built around the results that the source calls inconclusive (neither active nor inactive); the mix of calls is not that of the screen. Rule as the data show it: active = inhibition above about 35% (passing the limit was not always enough); inconclusive = no clear call, values can overlap the other calls.

tested on: Botulinum neurotoxin type F light chain protease (Clostridium botulinum); test: BoNT/F light chain protease inhibitors, primary screen, biochemical, flow cytometry, MLPCN library (AID 588497); conditions: Multiplex microsphere protease cleavage assay, at 10 µM, hits give high values; also: plate controls were buffer without enzyme for full effect and enzyme alone for no effect

Row | Structure (SMILES) | inhibition
1 | CCOc1cc(C(=S)N2CCOCC2)ccc1OS(=O)(=O)c1ccc(C)cc1 | inconclusive: 8.1%
2 | COc1ccc(NC(=O)c2cccc(OC(F)F)c2)cc1Cl | inactive: -3.9%
3 | Cc1cc(NC(=O)c2c(-c3c(F)cccc3Cl)noc2C)no1 | inconclusive: 27.8%
4 | O=C(NCc1ccc(F)cc1F)Nc1cnccc1C(F)(F)F | inconclusive: -27.1%
5 | Nc1ccccc1Sc1cc(Cl)nnc1Cl | active: 82.9%
6 | Cc1ccc(-n2ncc3c(SCC(N)=O)ncnc32)cc1C | inconclusive: -14.8%
7 | COc1cc(/C=C2/C(=N)N3C=CSC3=NC2=O)ccc1OCCCOc1ccccc1C | active: 37%
8 | Nc1ccc(N2CCN(C(=O)c3ccco3)CC2)cc1 | inactive: -12.2%
9 | COc1cccc(N=Cc2nc(-c3ccccc3)oc2OC(C)=O)c1 | inconclusive: 19.9%
10 | COC(=O)c1c(C)oc2ccc(OC(=O)c3cccs3)cc12 | inactive: 4.8%
11 | Cc1onc(-c2c(F)cccc2Cl)c1C(=O)NCCN1CCNC1=O | inconclusive: -64.1%
12 | Cc1nc(=O)c(-c2ccccc2)c(C)n1-c1cccc(C(=O)O)c1 | inconclusive: -0.4%
13 | O=C(O)CC(Cn1[nH]nnc1=S)c1ccccc1 (centres undefined) | inactive: 0%
14 | COc1ccccc1CC(=O)NCc1nn(-c2ccccc2)nc1C | inconclusive: -46.1%
15 | CN1C(=O)C(=Cc2ccccc2Oc2ccc(Cl)c(F)c2)C(=O)N(C)C1=O | inconclusive: -30.6%
16 | O=C(Nc1ccccc1)C1CCN(c2nccs2)CC1 | inconclusive: -5.6%
17 | CC(C)n1cnc2c(oc3ccccc32)c1=O | inactive: -16.9%
18 | COc1cc2c(cc1OC)C(c1ccc(-c3ccccc3Cl)o1)=NCC2 | inactive: 6.1%
19 | Cc1sc2c(c1C)C(O)=C(C(=O)Nc1ccccc1)S(=O)(=O)N2C | inconclusive: -20.1%
20 | COc1ccc(CN=CC2=C(O)CNC2=O)cc1 | inactive: 4.5%
21 | CCc1nc(NC(C)(C)C)c2cnn(-c3ccccc3)c2n1 | inconclusive: -33.1%
22 | COc1ccc(-c2noc(C3CCCN(C(=O)c4cccc(C)c4)C3)n2)cc1 (centres undefined) | inconclusive: -13.8%
23 | CN(/N=C/c1ccc(O)cc1O)c1ncc(C(F)(F)F)cc1Cl | inconclusive: -97%
24 | O=C(Nc1ccc(F)cc1)c1ccc(CSc2ccc(Cl)cc2)o1 | inconclusive: -14.2%

Row | Structure (SMILES) | inhibition
25 | COc1ccc(Nc2nc(N3CCOCC3)nc(N3CCOCC3)n2)cc1Cl | inactive: -3.1%
26 | O=C1C(=O)N(c2ccc(O)cc2)C(c2ccccc2[N+](=O)[O-])/C1=C(\O)c1ccccc1 (centres undefined) | inactive: -3.5%
27 | CC(=NNc1nc2ccccc2o1)c1cc2ccccc2cn1 | active: 74.3%
28 | Cc1c(NC(=O)COc2ncnc3ccccc23)c(=O)n(-c2ccccc2)n1C | inconclusive: -14.3%
29 | CCn1cnc2cc(NC(=O)c3ccc(C)cc3)ccc21 | inactive: -11.3%
30 | C#CCN1C(=O)S/C(=C\c2cc3c(cc2OC)OCO3)C1=O | inconclusive: -8.6%
31 | COc1ccc(NC(=O)c2ccccc2NC(=O)C2CCCCC2C(=O)O)cc1 (centres undefined) | inconclusive: -5.4%
32 | Cc1ccc(C2Nc3cccc4cccc(c34)N2)cc1 | inconclusive: -22.7%
33 | CC(C(=O)N1CCN(c2ccccc2)CC1)c1ccc([N+](=O)[O-])cc1 (centres undefined) | inconclusive: -18.4%
34 | COc1cc(NC(=S)NC(=O)c2ccccc2F)ccc1NC(=O)c1ccco1 | inactive: -4%
35 | CCOC(=O)c1c(CN2CCCCC2C)oc2ccc(OC)cc12 (centres undefined) | inactive: -2.8%
36 | CCCCCCSc1nnc(N)s1 | inconclusive: 64.6%
37 | O=C(COc1nnc2ccccn12)N1CCN(S(=O)(=O)c2ccccc2)CC1 | inactive: 9.6%
38 | CCn1nc([N+](=O)[O-])c(C(C#N)c2nc3ccccc3n2C)c(Cl)c1=O (centres undefined) | inactive: -6.1%
39 | Cc1cc(C)c2oc(C(=O)N(Cc3ccccc3)C3CCS(=O)(=O)C3)cc(=O)c2c1 (centres undefined) | inconclusive: 3.8%
40 | COc1ccccc1NC(=O)C(=O)N/N=C(\C)CC(=O)Nc1ccccc1C(F)(F)F | inactive: -7.6%
41 | COc1cc(NC(=O)C2CC(c3cccc(OC)c3OC)=NO2)cc(OC)c1OC (centres undefined) | inactive: 2.5%
42 | CCN1C(=O)/C(=C/c2cccs2)SC1=Nc1ccc(OC)cc1 | inactive: -13%
43 | CCC(C)Sc1cccc(-c2nc3cc(C)ccn3c2NCc2ccccc2)c1 (centres undefined) | inactive: -9.2% and inactive: -10.4%
44 | O=C(O)COc1ccccc1/C=N/NC(=O)c1cc(-c2ccc(F)cc2)nc2ccccc12 | inactive: -1.8%
45 | Fc1cccc(Cl)c1CNCCCSc1ncccn1 | inconclusive: -51.4%
46 | Cc1ccc(S(=O)(=O)NCCn2nc(C)nc2C)cc1 | inactive: -4.3%
47 | CC(=O)Nc1cccc(OCCCNC(=O)c2cccc3ccccc23)c1 | inconclusive: 43.5%
48 | Cc1ccc(Nc2nc(-c3ccc(F)cc3)cs2)nc1 | inconclusive: -20.9%

Row | Structure (SMILES) | inhibition
49 | Cc1cccc(OCC(=O)N/N=C/c2cccn2C)c1 | inconclusive: -45.9%
50 | CC(=NNC(=S)N(Cc1ccccn1)Cc1ccccn1)c1cnccn1 | active: 44.9%
51 | CCOC(=O)C1C2C=CC3(CN(CCc4ccccc4)C(=O)C13)O2 (centres undefined) | inconclusive: 15.7%
52 | O=C(NC(=S)NNC(=O)c1ccccc1O)c1cccc([N+](=O)[O-])c1 | inconclusive: -25.4%
53 | O=C(NC(=S)NNC(=O)c1ccccc1O)c1ccccc1 | inconclusive: -13.1%
54 | COc1ccc(C2NC(=O)NC(C)=C2C(=O)OCc2ccccc2)cc1 (centres undefined) | inconclusive: 29.4%
55 | CC(=O)c1ccc2c(c1)OCCOCCOCCO2 | inconclusive: 67.7%
56 | O=C1N(c2ccccc2)CCN1c1ccccc1 | inconclusive: 23.4%
57 | O=C(CSc1nnc(Cc2ccccc2)o1)c1ccc(F)cc1 | inconclusive: 57.3%
58 | CN(C)CCCN(C(=O)c1sc2ccccc2c1Cl)c1nc2c(F)cccc2s1 | inactive: 15.1%
59 | CCOC(=O)c1c(NC(=O)c2ccccc2C(=O)O)sc2c1CCC2 | inconclusive: 26.6%
60 | O=C(COC(=O)c1cccc(S(=O)(=O)Nc2ccc(F)cc2)c1)NCCN1C(=O)CSC1=O | inconclusive: -1%
61 | O=C(Nc1sc2c(c1C(=O)O)CCC2)c1ccccc1F | inconclusive: -37.8%
62 | COC(=O)c1ccc(CNC(=O)CCc2c[nH]c3ccccc23)cc1 | active: 80.8%
63 | COc1ccc(/C(N)=N/OC(=O)CSc2ccccc2)cc1OC | inactive: -29.4%
64 | Cc1nc2ccc(C(=O)Nc3ccccc3Cl)cc2s1 | inconclusive: 25.8%
65 | CCOC(=O)c1sc(NC(=O)CSc2nnc(Cc3ccccc3)o2)c(C#N)c1C | inactive: 3.2%
66 | Cc1nn(CCC(=O)NNC(=S)Nc2cccc(Cl)c2)c(C)c1[N+](=O)[O-] | inactive: -4.7%
67 | O=C(CCC(=O)Nc1ccc(Oc2ccccc2)cc1)NCCO | inconclusive: 27.6%
68 | COc1ccc(C)cc1NC(=O)c1ccccc1N(C)S(=O)(=O)c1ccccc1 | inconclusive: -47.1%
69 | COCCNC(=S)N/N=C(\C)c1ccc(-n2ccnc2)cc1 | inactive: 2.1%
70 | O=C(CN1CCN(Cc2ccccc2Cl)CC1)N/N=C/C=C/c1ccccc1[N+](=O)[O-] | inactive: -3.9%
71 | CN(/N=C/c1ccncc1)c1cnn(-c2ccc(F)c(Cl)c2)c(=O)c1Cl | inactive: -3.4%
72 | COc1ccc(CCC(=O)OCC(=O)N(C)c2c(N)n(Cc3ccccc3)c(=O)[nH]c2=O)cc1 | inconclusive: -64.2%

Row | Structure (SMILES) | inhibition
73 | Nc1nnnn1/N=C/c1ccccc1Cl | inactive: -0.2%
74 | S=C(CN1CCCC1=S)N1CCOCC1 | inconclusive: 13.8%
75 | COc1ccc(C(=O)Cn2c(C)nc([N+](=O)[O-])c2Br)cc1 | inconclusive: -59%
76 | Cc1nn(-c2ccccc2)nc1-c1nnc(-c2ccc(C(F)(F)F)cc2)o1 | inconclusive: 17.5%
77 | COCCSc1ccccc1C(=O)Nc1nnc(COC)s1 | inactive: 1.2%
78 | Cc1ccc(-n2nnnc2CNC(=O)c2ccc([N+](=O)[O-])o2)cc1C | inconclusive: -4.8%
79 | CCOc1cc(C2NC(=O)c3ccccc3O2)ccc1OC (centres undefined) | inconclusive: -19.1%
80 | Cc1nc2c(-c3ccccc3)c(C)nn2c(C)c1CCC(=O)N1CCC2(CC1)OCCO2 | active: 61.8%
81 | O=S1(=O)C[C@H](N2CCCC2)[C@@H](COCc2ccccc2)N1 | inactive: -11.1%
82 | CC1(C)Cc2c(sc3nnn(CC(=O)Nc4ccccc4)c(=O)c23)CO1 | inconclusive: -9.1%
83 | Cc1oc2ccccc2c1CC(=O)NCCCN(C)C | inconclusive: 31.7%
84 | COc1ccc(OCC(=O)NNc2nc3ccccc3s2)cc1 | inconclusive: 23.7%
85 | CCOC(=O)c1c[nH][nH]c1=O | inconclusive: 7.6%
86 | CC(C)NC(=O)C1(C#N)C=C1c1ccccc1 (centres undefined) | inactive: -0.6%
87 | CCC1(CC)Nc2ccccc2C(=O)N1c1ccc(OC)cc1 | inconclusive: 46.2%
88 | CCCCCC1CC1C(=O)N/N=C/c1ccc(N(C)C)cc1 (centres undefined) | inactive: -15.2%
89 | Cn1cc(Br)c(-c2cccc(NC(=O)CCCC(=O)O)c2)n1 | inconclusive: 68.9%
90 | COc1ccc(C2Nc3ccccc3C(=O)N2Cc2ccccc2)cc1OC (centres undefined) | inconclusive: 12.8%
91 | O=C(c1ccc(Cl)cc1)C1CCN(C(=S)Nc2ccccc2)CC1 | inconclusive: -5.6%
92 | CCOC(=O)Nc1ccc2nc(-c3cscn3)[nH]c2c1 | inactive: -4.3%
93 | S=c1[nH]nc(-c2ccccn2)n1/N=C/c1ccc(Cl)cc1 | inconclusive: -35%
94 | COc1ccc(OCC(=O)OCCN2C(=O)c3ccccc3C2=O)cc1 | inactive: 6.8%
